Values joined by “and” are separate entries in the source; they are usually repeats but may differ in a detail not shown here. Equal values may be shown once. The whole screen tested about 2,000 compounds, of which about 45 (2%) were called active.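 The calls were made as follows: active = inhibition above the screen-wide mean inhibition plus 3 SD (cut at about 44% in these data); inactive = the rest.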 The list shows a part of the results.
Molecular target: Perilipin-1 (Homo sapiens) + 1-acylglycerol-3-phosphate O-acyltransferase ABHD5 (Homo sapiens) (UniProt O60240+Q8WTS1)
Assay: ABHD5-PLIN1 interaction inhibitors, pilot screen, cell lysate, split luciferase complementation, luminescence, NIH validation set (AID 493027);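 also: 0% = DMSO wells with the 100% control not disclosed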
Conditions: split G. princeps luciferase complementation, 4 h; at 7.9 µM, hits give high values

Chains of the proteins cited; added tags and fusions are not shown. Lines headed by an entry give the natural chain unless they say otherwise; changes in a name come on top.
UniProt O60240: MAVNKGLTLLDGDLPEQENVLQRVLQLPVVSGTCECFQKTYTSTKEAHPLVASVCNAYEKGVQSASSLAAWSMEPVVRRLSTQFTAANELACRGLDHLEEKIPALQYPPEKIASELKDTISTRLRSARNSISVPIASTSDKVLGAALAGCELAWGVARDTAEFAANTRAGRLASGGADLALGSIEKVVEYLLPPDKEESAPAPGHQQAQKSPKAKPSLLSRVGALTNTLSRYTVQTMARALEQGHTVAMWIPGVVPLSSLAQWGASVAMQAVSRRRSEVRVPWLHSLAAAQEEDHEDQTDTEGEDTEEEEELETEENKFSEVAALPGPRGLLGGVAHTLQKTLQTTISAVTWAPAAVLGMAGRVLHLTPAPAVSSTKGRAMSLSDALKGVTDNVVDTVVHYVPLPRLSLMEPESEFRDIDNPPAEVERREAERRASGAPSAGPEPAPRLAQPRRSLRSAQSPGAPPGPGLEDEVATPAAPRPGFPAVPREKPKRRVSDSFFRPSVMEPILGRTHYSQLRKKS
UniProt Q8WTS1: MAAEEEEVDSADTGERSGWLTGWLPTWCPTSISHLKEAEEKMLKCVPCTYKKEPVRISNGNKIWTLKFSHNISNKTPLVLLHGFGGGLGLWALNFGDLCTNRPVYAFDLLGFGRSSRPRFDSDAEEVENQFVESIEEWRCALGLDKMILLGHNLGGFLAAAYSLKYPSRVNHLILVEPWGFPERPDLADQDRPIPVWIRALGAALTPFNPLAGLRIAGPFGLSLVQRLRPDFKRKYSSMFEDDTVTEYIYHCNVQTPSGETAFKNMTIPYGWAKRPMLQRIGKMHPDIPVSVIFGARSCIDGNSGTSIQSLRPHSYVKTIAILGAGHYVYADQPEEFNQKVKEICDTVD

inhibition, active:
O=C1C=CC(=O)C(C2=C3C(=O)N(CCc4ccccc4)CC(=O)N3CCC2)=C1 68.9%
O=C(c1ccco1)N(CCC(c1ccccc1)c1ccco1)Cc1ccco1 (centres undefined) 56.6%
COc1ccc(CN(CCC(c2ccccc2)c2ccc(OC(C)C)cc2)C(=O)CCl)cc1OC (centres undefined) 64.4%

inhibition, inactive:
COc1cc2c(cc1OC)-c1cc(OCc3ccccc3Cl)nc(=O)n1CC2 15.9%
C[C@]12C=CC(=O)C=C1CCC1C3CC[C@](O)(C(=O)CO)[C@@]3(C)CC3OC312 (some centres undefined) -8.39%
CCN1CCn2c3c(c4cc(Cl)ccc42)CCCC31 (centres undefined) -2.44%
COc1cc(OC)c(C(=O)CCCN2CCCC2)c(OC)c1 -6.39%
CCOC(=O)NN1C(=O)c2ccccc2NC1c1ccc(OC)c(OC)c1 (centres undefined) -3.24%
Cc1ccc2c(CC(=O)O)coc2c1 -5.04%
COc1ccccc1-c1c(C(F)(F)F)oc2cc(OC(=O)c3ccc([N+](=O)[O-])cc3)ccc2c1=O 19.7%
CCOc1ccc(OCCSc2nc3ccccc3[nH]2)cc1 -1.01%
CN1CCc2cccc3c2[C@H]1Cc1ccc(O)c(O)c1-3 -0.06%
CC(C)C1CC(CCNCc2ccc(N(C)C)cc2)(c2ccccc2)CCO1 (centres undefined) -14.5%
CCC(NC(C)C)C(O)c1ccc(O)c(O)c1 (centres undefined) 1.91%
CC1(C)CC(=O)c2cc(O)ccc2O1 -2.35%
c1cnc2c(c1)ccc1cccnc12 -52.2%
CCn1ccnc1CN(C)Cc1cn(-c2cccc(C)c2)nc1-c1cccc(F)c1 1.49%
COc1cc(C(=O)N/C(=C\c2cn(C)c3ccccc23)C(=O)NCCCO)cc(OC)c1OC -0.99%
Cc1ccc2nc(N=C(N)N)nc(C)c2c1 -2.93%
COc1cc(C2Nc3ccccc3C(=O)N2c2ccccc2)ccc1O (centres undefined) 2.31%
Cc1ccc(-c2nn(-c3cccc(F)c3)cc2CN2CCN(c3ccccn3)CC2)o1 7.39%
Cc1cc(Cl)cc2c1NC(=O)[C@]21[C@@H]2C(=O)N(Cc3ccccc3)C(=O)[C@@H]2[C@@H]2CCCN21 5.08%
N/C(=N\OC(=O)CCCOc1ccc(Cl)cc1Cl)c1ccccn1 -6.95%
NC12CC3CC(CC(C3)C1)C2 -6.44%
CC(C)(C)c1csc(N/N=C/c2cccnc2)n1 -5.97%
Cc1nc2ccccc2n1CC(=O)NC1CCCC1 -15.2%
O=C(Nc1cccc(Cl)c1)N1CCN2C(=O)c3ccccc3C12c1ccccc1 (centres undefined) 6.94%
O[C@@H](CNC[C@H](O)c1ccccc1)c1ccccc1 -1.94%
Cc1cccc(-n2c(Cc3ccccc3)n[nH]c2=S)c1 -9.48%
CN1CCN(C2=Nc3cc(Cl)ccc3Nc3ccccc32)CC1 -1.98%
CCn1c(/C=C/c2ccccc2)nc2ccccc2c1=O 7.31%
CCn1c2ccccc2c2cc(CC(N)=O)ccc21 1.29%
N#C/C(C(N)=O)=c1/ccc2c(c1)N1C3=C(CCCC3)CC3CCCCC31N=2 (centres undefined) 6.71%
O=C(Nc1nc2ccccc2s1)c1ccc(F)cc1 -5.53%
Oc1ccc(Cl)cc1Cc1cc(Cl)ccc1O 0.63%
COc1ccc(OC(C)C(=O)Nc2ccccc2F)cc1 (centres undefined) -1.13%
COc1ccc(/C=C/C(=O)NC(=S)NN2CCCCC2c2cccnc2)cc1 (centres undefined) 3.85%
CC(C)COCC(CN(Cc1ccccc1)c1ccccc1)N1CCCC1 (centres undefined) -7.7%
COc1cc2c(cc1OC)C(c1ccc(-c3cc(Cl)ccc3Cl)o1)=NCC2 6.19%
CC(C)OC(=O)C1C2C=CC3(CN(CC4CCCO4)C(=O)C13)O2 (centres undefined) 10.8%
CC(CCCC(C)(C)O)NC(=O)c1ccc(OC2CCN(C(=O)C3CC3)CC2)cc1 (centres undefined) -7.27%
CC(=O)c1cccc2c(O)c(C3=Nc4ccccc4C3=O)[nH]c12 13%
Cc1ccc(/C=N/Nc2nc(C(C)(C)C)cs2)o1 -12%
Cc1ccc2[nH]c3c(c2c1)CN(C(=O)CN1CCSCC1)CC3 14.8%
COc1cc(OC)cc(C(C)=O)c1 -7.11%
Cc1ccc(-n2ncc3c(Nc4cccc(C(=O)O)c4)ncnc32)cc1 9.15%
NCCOc1ccccc1OCCN -1.62%
CCCCOC(=O)c1ccc(N)cc1 4.95%
O=C(CS(=O)(=O)Cc1ccccc1)NCc1ccc2c(c1)OCO2 -12.5%
O=C(Nc1cccc(-c2nc3ncccc3o2)c1)c1ccccc1 2.01%
O=C(NCCCCCc1nc2ccccc2[nH]1)c1ccccc1Cl 2.81%
Cc1ccc2ncnc(NCCCCCC(=O)O)c2c1 3.36%
CCOc1ccc2ccccc2c1CNc1nnnn1C -8.53%
COc1ccc(OC(C)C(=O)Nc2ccc([N+](=O)[O-])cc2)cc1 (centres undefined) -4.29%
Cc1ccsc1C1NC(=O)c2ccccc2N1 (centres undefined) -1.07%
COc1ccc2oc(=O)c(C(=O)N3CCN(c4ccccc4)CC3)cc2c1 9.05%
CC(C)Oc1ccc(C(CC(=O)O)c2ccc(F)cc2)cc1 (centres undefined) -5.29%
O=C(O)CCSCCC(=O)O -4.69%
O=C(c1cc2cc(Br)ccc2o1)N1CCCCC1 -9.79%
CO[C@@]1(NC(=O)Cc2cccs2)C(=O)N2C(C(=O)O)=C(COC(N)=O)CS[C@@H]21 6.03%
CC(C)OC(=O)C1C(=O)CC(C)(O)C(C(=O)OC(C)C)C1c1cccc(O)c1 (centres undefined) -0.5%
COc1ccc(CCN2CNc3c(c(=O)n(C)c(=O)n3C)C2)cc1OC -10%
CC(CCc1ccccc1)NC(=O)/C=C/c1ccccc1 (centres undefined) 2.76%
COc1cc(Cc2cnc(N)nc2N)cc(OC)c1OC -6.33% and -2.25%
